The source of these data is publication PMC7408493 (Biomolecules, 2020).

Some peptides are written in HELM: one residue between dots, names in brackets for other building blocks, links after the first $.

This series can be described thus: peptide made by a vendor. To be noted: whole synthesis.

Consider PEPTIDE1{A.V.F.Q.H.N.C.Q.E}$$$$V2.0, for which the “purity (crude or final not stated)” value is given as 98.94%.
